The test system of the test is BDF1 mice, P388 leukemia ip, median survival T/C. In words: NCI In Vivo Anticancer Drug Screen. Data for tumor model P388 Leukemia (intraperitoneal) in B6D2F1 (BDF1) mice. As to conditions: T/C endpoint: median survival time, higher T/C = longer survival. The method in brief: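 Mice carrying the transplantable tumour receive compound or vehicle. Survival is followed in each arm, and the treated measure is divided by the vehicle measure.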

Where [1] appears, read: dose: 50.0 mg/kg/injection, schedule: Q01DX009 (ip), vehicle: saline with Tween-80.
[2] abbreviates: dose: 100.0 mg/kg/injection, schedule: Q01DX009 (ip), vehicle: saline with Tween-80.
Setting [3] is: dose: 400.0 mg/kg/injection, schedule: Q01DX009 (ip), vehicle: saline with Tween-80.

The list does not hold the whole screen: it gathers tests that were run many times, whatever their T/C, doses with no T/C, and many T/C values between a quarter and a half above the control. Other doses and runs of a compound stand elsewhere. T/C is the treated group as % of the vehicle group. Some entries give survivors of the animals treated and no T/C: the source files T/C as zero there, which appears to mark a toxic dose or a test without result, not a measured value. Some doses without a T/C left all or most animals alive at the check, yet need not have been tolerated: survival well below the control is almost never listed, so the zero probably covers shortened survival too. Survivors were counted at the toxicity check, usually on the fifth day, unless a day is given; later deaths do not show. Schedules are NCI's codes, read here as Q, the interval in days (D) or hours (H), X, the number of doses. Some entries were tested several times; the results are listed from low to high. Some schedules carry Z or #; the key to these is not given. Where survival is the endpoint, the PubChem record calls one and a half times the control and up active, and a quarter to a half above the control has no call in these data; cut-offs in other NCI protocols can differ. Some T/C values are followed by the survivors on the day toxicity was checked, most often the fifth; without a count, all were alive then. Non-standard residues stand in square brackets, D forms with d. Residues, ends and D or L forms follow the SMILES beside them. ξ: configuration not given here. *: point of attachment. Nphe = O=C(O)CNCc1ccccc1; ξF = NC(Cc1ccccc1)C(=O)O; Ms = CS(=O)(=O)*

Regarding `COC(=O)C(CO)NC(=O)OCc1ccc(OC)cc1` (stereo not given), the survivor count (dose: 6.25 mg/kg/injection, schedule: Q01DX009 (ip), vehicle: distilled water + Tween-80) was 6 of 6.

As to `Cn1nc(N)c2ncc(C(Cl)(Cl)Cl)nc21`, the survivor count is, setting by setting: under setting [1], 6 of 6; under setting [2], 4 of 6; (dose: 200.0 mg/kg/injection, schedule: Q04DX003 (ip), vehicle: saline with Tween-80) 3 of 6.

On to `COc1cc(NS(C)(=O)=O)ccc1Nc1c2cccc(C)c2nc2c(C)cccc12`, for which the T/C is 126 % of control (dose: 0.52 mg/kg/injection, schedule: Q01DX009 (ip), vehicle: saline) and 141 % of control (dose: 0.78 mg/kg/injection, schedule: Q01DX009 (ip), vehicle: saline). In addition, the survivor count (dose: 50.0 mg/kg/injection, schedule: Q01DX009 (ip), vehicle: saline) is given as 6 of 6; the survivor count (dose: 100.0 mg/kg/injection, schedule: Q01DX009 (ip), vehicle: saline) is recorded as 6 of 6; the survivor count (dose: 200.0 mg/kg/injection, schedule: Q01DX009 (ip), vehicle: saline) is reported as 6 of 6; the survivor count (dose: 400.0 mg/kg/injection, schedule: Q04DX003 (ip), vehicle: saline with Tween-80) was 4 of 6.

`CC(=O)NC(Cc1ccc(F)cc1)C(=O)O` (stereo not given): the T/C by setting is: under setting [2], 127 % of control; under setting [3], 130 % of control.

For the molecule `c1ccc2c3csc4ccccc4c-3nc2c1`, the survivor count (dose: 25.0 mg/kg/injection, schedule: Q04DX003 (ip), vehicle: Klucel (hydroxypropylcellulose) (HPC)) is listed as 6 of 6 and the survivor count (dose: 50.0 mg/kg/injection, schedule: Q04DX003 (ip), vehicle: Klucel (hydroxypropylcellulose) (HPC)) is 4 of 6.

For the molecule `CCO/C=C1\SC(=S)N(c2ccco2)C1=O`, the T/C was 127 % of control (dose: 14.6 mg/kg/injection, schedule: Q01DX009 (ip), vehicle: saline with Tween-80); 136 % of control (dose: 25.0 mg/kg/injection, schedule: Q01DX009 (ip), vehicle: saline with Tween-80); 130 % of control (dose: 30.0 mg/kg/injection, schedule: Q01DX009 (ip), vehicle: saline with Tween-80); 127 % of control (dose: 33.0 mg/kg/injection, schedule: Q01DX009 (ip), vehicle: saline with Tween-80); 130 and 133 % of control (dose: 44.0 mg/kg/injection, schedule: Q01DX009 (ip), vehicle: saline with Tween-80); 136 % of control under setting [1]. For the same molecule, the T/C is 126 and 135 % of control (dose: 66.0 mg/kg/injection, schedule: Q01DX009 (ip), vehicle: saline with Tween-80); 116, 136, 140 % of control under setting [2]. Also, the survivor count under setting [2] is given as 3 of 6; the survivor count (dose: 150.0 mg/kg/injection, schedule: Q01DX009 (ip), vehicle: saline with Tween-80) is 2 of 6 and 6 of 6; the survivor count (dose: 150.0 mg/kg/injection, schedule: Q01DX009 (ip), vehicle: saline) is given as 5 of 6; the survivor count (dose: 200.0 mg/kg/injection, schedule: Q01DX009 (ip), vehicle: saline with Tween-80) is listed as 4 of 6; the survivor count under setting [3] is listed as 6 of 6.

For the molecule `C/C(=N\Nc1ccc([N+](=O)[O-])cc1[N+](=O)[O-])C(F)(F)F`, the T/C under setting [2] is 145 % of control.

Take `COC(=O)[C@@]12OC[C@]34[C@H]([C@@H](O)[C@@H]1O)[C@@]1(C)[C@H](O)C(=O)C=C(C)[C@@H]1C[C@H]3OC(=O)C(OC(C)=O)[C@@H]24` (stereo not given in full): the T/C (dose: 125.0 micrograms/kg/injection, schedule: Q01DX009 (ip), vehicle: saline + alcohol) is 127 % of control; the T/C (dose: 250.0 micrograms/kg/injection, schedule: Q01DX009 (ip), vehicle: saline + alcohol) is 131 % of control; the T/C (dose: 500.0 micrograms/kg/injection, schedule: Q01DX009 (ip), vehicle: saline + alcohol) was 136 % of control [5 of 6 alive]; the T/C (dose: 1000.0 micrograms/kg/injection, schedule: Q01DX009 (ip), vehicle: saline + alcohol) is 140 % of control [5 of 6 alive]. Besides, the survivor count is, setting by setting: (dose: 2000.0 micrograms/kg/injection, schedule: Q01DX009 (ip), vehicle: saline + alcohol) 3 of 6; (dose: 4000.0 micrograms/kg/injection, schedule: Q01DX009 (ip), vehicle: saline + alcohol) 0 of 6.

For the molecule `COc1cc2cc(c1Cl)NC(=O)/C=C/[C@]1(C)O[C@H]1[C@H](C)[C@@H]1C[C@@](O)(NC(=O)O1)[C@H](OC)C=C/C=C(\C)C2`, the survivor count (dose: 1.6 micrograms/kg/injection, schedule: Q01DX009 (ip), vehicle: saline + alcohol) is reported as 6 of 6; the survivor count (dose: 3.1 micrograms/kg/injection, schedule: Q01DX009 (ip), vehicle: saline + alcohol) was 6 of 6; the survivor count (dose: 6.2 micrograms/kg/injection, schedule: Q01DX009 (ip), vehicle: saline + alcohol) was 6 of 6.

Take `COc1cc2cc3cc4cc(OC)c(OC)cc4c(C)[n+]3cc2cc1OC` (tested in a mixture with another compound): the T/C runs as follows: (dose: 5.0 mg/kg/injection, schedule: Q01DX009 (ip), vehicle: saline) 140 % of control; (dose: 10.0 mg/kg/injection, schedule: Q01DX009 (ip), vehicle: saline) 145 % of control [5 of 6 alive]; (dose: 20.0 mg/kg/injection, schedule: Q04DX003 (ip), vehicle: saline) 148 % of control; (dose: 80.0 mg/kg/injection, schedule: Q04DX003 (ip), vehicle: saline) 136 % of control. The survivor count is on record as 5 of 6 (dose: 240.0 mg/kg/injection, schedule: Q01DX009 (ip), vehicle: saline) and 5 of 6 (dose: 320.0 mg/kg/injection, schedule: Q04DX003 (ip), vehicle: saline).

Take `OCCC1CC1=C1CC1` (stereo not given): the survivor count by setting is: (dose: 150.0 mg/kg/injection, schedule: Q01DX009 (ip), vehicle: Klucel (hydroxypropylcellulose) (HPC)) 2 of 6; (dose: 225.0 mg/kg/injection, schedule: Q01DX009 (ip), vehicle: Klucel (hydroxypropylcellulose) (HPC)) 0 of 6; (dose: 335.0 mg/kg/injection, schedule: Q01DX009 (ip), vehicle: Klucel (hydroxypropylcellulose) (HPC)) 0 of 6.

Consider `CCCCCCCCCCCCCCCC(=O)NCCO`, for which the T/C (dose: 50.0 mg/kg/injection, schedule: Q04DX003 (ip), vehicle: saline sonified) is 141 % of control. Moreover, the survivor count (dose: 200.0 mg/kg/injection, schedule: Q04DX003 (ip), vehicle: saline sonified) is 6 of 6.

Consider `CS(=O)(=O)N(CC(=O)NC(Cc1ccccc1)C(=O)O)Cc1ccccc1` (stereo not given) (Ms-[Nphe]-[ξF]-OH), for which the survivor count reads like this: (dose: 200.0 mg/kg/injection, schedule: Q01DX009 (ip), vehicle: other) 0 of 6; (dose: 400.0 mg/kg/injection, schedule: Q01DX009 (ip), vehicle: other) 0 of 6.

In the case of `Oc1ccc(/C=N/NC(=S)Nc2ccccc2)nc1`, the T/C runs as follows: (dose: 100.0 mg/kg/injection, schedule: Q04DX003 (ip), vehicle: Klucel (hydroxypropylcellulose) (HPC)) 128 % of control; (dose: 200.0 mg/kg/injection, schedule: Q04DX003 (ip), vehicle: Klucel (hydroxypropylcellulose) (HPC)) 130 % of control.

Regarding `COc1cc(C)c(Cl)c(C)c1C#CC(=O)O`, for the setting “dose: 400.0 mg/kg/injection, schedule: Q01DX001 (ip), vehicle: Klucel (hydroxypropylcellulose) (HPC)”, the survivor count was 1 of 6.

Turning to `CN(C)c1ccc2c(N(C)C)cc(N(C)C)nc2c1`, the T/C (dose: 100.0 mg/kg/injection, schedule: Q01DX009 (ip), vehicle: Klucel (hydroxypropylcellulose) (HPC)) was 127 % of control [4 of 6 alive].

With `CCN=C(N)N=C(N)N`, the survivor count was 0 of 6 (dose: 200.0 mg/kg/injection, schedule: Q01DX001 (ip), vehicle: saline) and 0 of 6 (dose: 400.0 mg/kg/injection, schedule: Q01DX001 (ip), vehicle: saline).

Regarding `O=c1ccc2cc(Cl)ccc2[nH]1`, the survivor count (dose: 200.0 mg/kg/injection, schedule: Q01DX001 (ip), vehicle: saline with Tween-80) is reported as 3 of 6.

As for `CCC(CCC(C)C1CCC2C3CC=C4CC(O)CCC4(C)C3CCC12C)C(C)C` (stereo not given) (tested in a mixture with another compound), the survivor count (dose: 25.0 mg/kg/injection, schedule: Q#A X020 (ip), vehicle: water) is 5 of 6; the survivor count (dose: 50.0 mg/kg/injection, schedule: Q#A X020 (ip), vehicle: water) is 1 of 6; the survivor count (dose: 100.0 mg/kg/injection, schedule: Q#A X020 (ip), vehicle: water) is reported as 0 of 6.

These data come from PubChem BioAssay AID328 (DTP/NCI, 2004).
